Some of these results come from one statement about several compounds together. For at least one compound, name, drawing or mass did not settle the structure.
Columns and labels:
[1] = tested on: Staphylococcus aureus ATCC49951; assay: MIC, Agar Dilution Test or Microdilution Test (CLSI M7-A7); type: cell-based; conditions: against Staphylococcus aureus ATCC49951
[2] = tested on: Streptococcus pneumoniae ATCC49619; assay: as above; type: cell-based; conditions: against Streptococcus pneumoniae ATCC49619

Row | SMILES | MICs [1] [µg/mL] | MICs [2] [µg/mL]
1 | CCC1(C)CC(OC(=O)CSC2CC(N)CCC2O)C2(C)C(C)CCC3(CCC(=O)C32)C(C)C1O (mixture of isomers) [Example 28, 14-O-{[(1R, 2R, 5R)-5-Amino-2-hydroxy-cyclohexylsulfanyl]-acetyl}-19,20-dihydro-mutilin+(1S, 2S, 5S)diastereomer] | ≤ 2 | ≤ 2
2 | C=CC1(C)CC(OC(=O)CSCC2(O)CCC(N)CC2)C2(C)C(C)CCC3(CCC(=O)C32)C(C)C1O.Cl (stereo not shown) [Example 31, 14-O-[(4-Amino-1-hydroxy-cyclohexylmethylsulfanyl)-acetyl]-mutilin hydrochloride] | ≤ 2 | ≤ 2

Source: patent US8153689B2, “Pleuromutilin derivatives for the treatment of diseases mediated by microbes” (Nabriva Therapeutics AG, priority 2007, dated 2012)
